Measured values taken from publication PMC5996888.
No constants are given. Whether binding was seen depends on the method and setting. In cells and extracts the contact can be indirect. Some results given as binding are weak or reduced against the parent protein; the word gives no strength.

Sequences of proteins named here, by UniProt entry; tags and fusion partners are left off. Residues count along the entry.
UniProt P01009, residues 25-418: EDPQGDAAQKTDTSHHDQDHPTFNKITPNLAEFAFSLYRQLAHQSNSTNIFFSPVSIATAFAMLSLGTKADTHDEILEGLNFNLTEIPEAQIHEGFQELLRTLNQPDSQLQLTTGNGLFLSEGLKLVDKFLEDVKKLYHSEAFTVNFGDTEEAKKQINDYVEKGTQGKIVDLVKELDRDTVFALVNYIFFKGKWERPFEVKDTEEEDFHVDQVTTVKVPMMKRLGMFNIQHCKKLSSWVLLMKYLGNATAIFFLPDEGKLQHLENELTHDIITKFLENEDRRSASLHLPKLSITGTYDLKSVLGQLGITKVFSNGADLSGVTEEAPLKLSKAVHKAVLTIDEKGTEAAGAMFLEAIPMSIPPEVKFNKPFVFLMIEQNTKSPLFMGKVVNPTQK
UniProt P16671: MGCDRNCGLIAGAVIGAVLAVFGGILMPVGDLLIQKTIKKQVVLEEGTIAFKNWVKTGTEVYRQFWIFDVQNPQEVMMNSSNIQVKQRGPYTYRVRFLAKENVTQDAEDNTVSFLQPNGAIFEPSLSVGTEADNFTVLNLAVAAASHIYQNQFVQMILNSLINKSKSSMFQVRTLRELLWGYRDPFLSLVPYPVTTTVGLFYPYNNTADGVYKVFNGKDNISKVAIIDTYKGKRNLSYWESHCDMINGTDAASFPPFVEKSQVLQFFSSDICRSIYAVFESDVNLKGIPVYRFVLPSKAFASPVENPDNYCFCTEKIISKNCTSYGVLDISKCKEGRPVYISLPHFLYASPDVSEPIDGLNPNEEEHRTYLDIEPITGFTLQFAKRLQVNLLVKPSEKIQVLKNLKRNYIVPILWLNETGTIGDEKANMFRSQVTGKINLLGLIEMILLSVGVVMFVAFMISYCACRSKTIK

Molecular target: alpha-1 antitrypsin preparation Prolastin (AAT-P) (human) (UniProt P01009)
Assay: co-IP; 500 µg AAT-P loaded on 200 µl Alpha1 Antitrypsin Select beads, incubated over night at 4°C with lysate of LPS-primed U937 cells (25 mM HEPES pH 7.2, 1 mM CaCl2, 1 mM MgCl2, 1% Triton-X100); washed, eluted, Western blotting for CD36 and AAT; control without AAT-P; only the target purified

binding: binds
Substance: CD36 (from UniProt P16671 1-472) (receptor)
